Patent US20140275490A1
Changes are numbered by the printed parent chain. Results are given in words; binding and its absence hold for the method and conditions named. Some binding calls cover weakened binding; strength is not graded here.

By UniProt entry, the sequences of proteins in these tests, tags left out. Where a name states a change or a piece, a line headed by the entry shows the natural chain unless it says otherwise.
UniProt Q5VWK5: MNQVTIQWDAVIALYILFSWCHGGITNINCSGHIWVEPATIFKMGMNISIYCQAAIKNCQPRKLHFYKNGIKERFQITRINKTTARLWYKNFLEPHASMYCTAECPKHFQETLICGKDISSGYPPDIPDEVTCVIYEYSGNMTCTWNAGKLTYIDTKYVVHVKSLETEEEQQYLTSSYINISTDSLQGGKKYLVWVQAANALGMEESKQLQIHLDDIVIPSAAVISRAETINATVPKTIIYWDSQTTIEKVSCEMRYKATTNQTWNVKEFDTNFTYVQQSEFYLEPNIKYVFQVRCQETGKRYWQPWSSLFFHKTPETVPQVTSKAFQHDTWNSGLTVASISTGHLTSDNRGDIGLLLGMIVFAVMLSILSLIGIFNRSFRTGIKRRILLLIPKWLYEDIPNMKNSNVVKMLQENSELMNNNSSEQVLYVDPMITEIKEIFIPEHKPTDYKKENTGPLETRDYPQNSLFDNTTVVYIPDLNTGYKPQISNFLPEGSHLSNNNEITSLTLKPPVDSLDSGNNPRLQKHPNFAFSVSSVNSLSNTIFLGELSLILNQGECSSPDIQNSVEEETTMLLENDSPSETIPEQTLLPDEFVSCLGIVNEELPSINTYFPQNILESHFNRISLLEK

B1: 32-28 (chimeric) (antibody, V domains shown)
VH: QVHLVQSGTEVRKPGASVKVSCKVSGYTLNELAIHWVRQAPGKGLEWMGGFDPEHGEIIYAQRFQGRVTLPEDTSTDTAYLDLFNLRSEDTAVYFCATEAAPFDYWGQGTLVIVSS
VL: DIQMTQSPSTLSASVGDRVTITCRASQSLSSWLAWYQQKPGKAPKLLIYKASSLESGVPSRFSGSGSGTDFTLTISSLQPDDFATYYCQQYDIYPRTFGQGTKVEIKR
B2: 34-58 (chimeric) (antibody, V domains shown)
VH: B1 VH with V68I, L81M, F84V, A97T, T110S
VL: B1 VL with S31N, S77G
B3: fully human antibody 34-58 (antibody, human IgG1, kappa, V domains shown)
VH: B1 VH with V68I, L81M, F84V, A97T, T110S
VL: B1 VL with S31N, S77G
B4: fully human antibody 32-28 (antibody, human IgG1, kappa, V domains shown)
VH: B1 VH
VL: B1 VL
B5: 30-15 (chimeric) (antibody, V domains shown)
VH: QVQLVQSGAEVKKPGASMKVSCKVSGYTLNELSIHWVRQAPGKGLEWMGGFDPEHGETVYAQNFQDRVTLTEDTSTDTSYMGLNNLRSDDTAVYYCAAESYGDYEFWGQGTLVTVSS
VL: DIQMTQSPSSVSASVGDRVTITCRASQGINNWLAWYQQKPGKAPKVLIYTASSLQSGVPSRFSGSGSGTDFTLTISSLQPEDFATYYCQQANSHPWTFGQGTKVEIKR
B6: fully human antibody 30-18 (antibody, human IgG1, kappa, V domains shown)
VH: B5 VH with M18V, G56S, V59L, V68L, D77E, S79A, Y80C, G82E, N85S
VL: B5 VL with G28D, N30S, N31S
B7: 30-18 (chimeric) (antibody, V domains shown)
VH: B5 VH with M18V, G56S, V59L, V68L, D77E, S79A, Y80C, G82E, N85S
VL: B5 VL with G28D, N30S, N31S
B8: fully human antibody 30-16 (antibody, human IgG1, kappa, V domains shown)
VH: QVQVVQSGAEVKKPGASVKVSCKVSGYTLIELAIHWVRQVPGKGLEWMGGFDPEHGETIYAQKFQGRVTMTEDTSTDTAYMELNNLRSEDTAVYYCAILEAGDLDCWGQGTLVTVSS
VL: B5 VL with N30S, I75V, S77G, A84G, H94F, W96F, Q100P, E105D
B9: 30-16 (chimeric) (antibody, V domains shown)
VH: B8 VH
VL: B5 VL with N30S, I75V, S77G, A84G, H94F, W96F, Q100P, E105D
B10: fully human antibody 30-15 (antibody, human IgG1, kappa, V domains shown)
VH: B5 VH
VL: B5 VL
B11: 25-3 (chimeric) (antibody, V domains shown)
VH: QVQLQESGPGQVKPSQTLSLTCSVSGGSIDSGDHYWTWIRQHPGEVLEWIGYIYSSGHTYYSPSLKSRLTMSLDTSKNQFSLRLSSVTAADTAVYYCARVGDYEWFDTWGQGTLVTVSS
VL: DIVMTQSPDSLAVSLGERATINCKSSQTILYPSNNMNYLGWYQQRAGQSPRLLIYWASTRESGVPDRFSGSGSGTDFTLTISSLQAEDVAVYYCQQYYSSLPTFGQGTKVEIKR
B12: fully human antibody 25-3 (antibody, human IgG1, kappa, V domains shown)
VH: B11 VH
VL: B11 VL

The binders below were run against human IL-23R-mouse Fc fusion protein (human; mouse) (UniProt Q5VWK5) (assay: antigen ELISA, human IL-23R-Fc immobilized).

binding, binds:
B1
B2
B3
B4
B5
B6
B7
B8
B9
B10
B11
B12
